Some of the results follow.
Each sequence was assayed against OsWRKY34 (Oryza sativa, UniProt Q0JBA9 1-250) (assay: protein-binding microarray (RPBM); PBS, 2% BSA, 51.3 ng/ul salmon testes DNA, 50 uM zinc acetate, 200 nM TF, 25 C, 1 h; high values mean tight binding). Settings: protein: recombinant; tags: N-terminal polyhistidine and DsRed monomer fusion (pET32a); label: CyDye5-dUTP incorporated in the synthesized complementary strand; 3' TTTTT single-stranded linker to array surface; dsDNA, one strand shown.
Procedure, shortened: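 For the binding signal, per-feature fluorescence intensity was read in arbitrary units on an Axon 4000B scanner. Before scanning, a 2% BSA-blocked custom Agilent array made double-stranded with Cy5-dUTP was washed after 1 h at 25 °C with 200 nM protein and 50 µM zinc acetate. The proteins were Ni–NTA-purified transcription factors with N-terminal polyhistidine and DsRed fusions, expressed in E. coli BL21-CodonPlus.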

Chains of the proteins cited; added tags and fusions are not shown.
UniProt Q0JBA9, entry or part of it: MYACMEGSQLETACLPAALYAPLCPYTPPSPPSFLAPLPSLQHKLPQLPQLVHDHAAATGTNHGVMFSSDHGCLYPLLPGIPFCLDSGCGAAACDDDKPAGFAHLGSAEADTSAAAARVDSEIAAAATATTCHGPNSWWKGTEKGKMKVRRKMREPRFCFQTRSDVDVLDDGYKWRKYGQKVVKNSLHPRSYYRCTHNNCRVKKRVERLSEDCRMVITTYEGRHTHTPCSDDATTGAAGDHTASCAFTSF

Sequence | binding signal
ACTCCATTTATTCGCTGAGCAAATTTCCAGCCTTTTTTGCCGGAGTCACCTAGTGCAG | 8110 fluorescence intensity (a.u.)
GATACTACACGTCTCTGCACACGCGTCAGCAAGCTCCTGTCGGAGTCACCTAGTGCAG | 8350 fluorescence intensity (a.u.)
CACCAATCCACCCTTAATTATCGTTTGCATGAGATAGTTTCGGAGTCACCTAGTGCAG | 8640 fluorescence intensity (a.u.)
TCAGCTATTACACGACAATACACGCTTCGGAGAATTTCCGCGGAGTCACCTAGTGCAG | 9700 fluorescence intensity (a.u.)
CCAAATTTTATTATTTTTGGTCACGTCGCGGCATGCATCTCGGAGTCACCTAGTGCAG | 9330 fluorescence intensity (a.u.)
ACACCATTTTACATCATTGATTCAGGTCCTGTTTAGTTCGCGGAGTCACCTAGTGCAG | 9420 fluorescence intensity (a.u.)
CCACCTTCGTTCTCCGCTTCGGCATTTCGTCGAACACCTCCGGAGTCACCTAGTGCAG | 9760 fluorescence intensity (a.u.)
CGGAGTTGCCACCTGCTGCTGCCATGATGCCTCTGTCGCCCGGAGTCACCTAGTGCAG | 10200 fluorescence intensity (a.u.)
ACTCACACACCCCAAGCCCTAGTCCGGCCGTCGACGCTGTCGGAGTCACCTAGTGCAG | 8690 fluorescence intensity (a.u.)
ATCACTATTTTTACACCTTAAACTTTGTTTGGTATTCCCACGGAGTCACCTAGTGCAG | 9990 fluorescence intensity (a.u.)
TATGTTTCAATTTTTCCTATATTATTAGAGTTTACCTTGTCGGAGTCACCTAGTGCAG | 9170 fluorescence intensity (a.u.)
TATTTTGGTGCACTTTTTTCCTTGAAAGTTGGCTGTCAATCGGAGTCACCTAGTGCAG | 10500 fluorescence intensity (a.u.)
ATTCTCATCATTGTTGGATTTCCTTAATTCTATTTTTCATCGGAGTCACCTAGTGCAG | 10800 fluorescence intensity (a.u.)
TTTATTTGCTTATCGTTTTCTAACATTCTGAACACAAACCCGGAGTCACCTAGTGCAG | 8230 fluorescence intensity (a.u.)
AGTATTATGCCCTTTTTTACTGTATATGCTTAGTTTTTAGCGGAGTCACCTAGTGCAG | 8190 fluorescence intensity (a.u.)
TTTGTTTTGAGCCGAACAAATCGGTAGTCAGTGGGCGGGGCGGAGTCACCTAGTGCAG | 11900 fluorescence intensity (a.u.)
AGAGAGGAATGTACTGTACAATCCCCATTTTTTTCCCAAGCGGAGTCACCTAGTGCAG | 8070 fluorescence intensity (a.u.)
TTTTTTTTTACCGGGAGGTGTCTAGGCTCGTTATGTTTTGCGGAGTCACCTAGTGCAG | 8860 fluorescence intensity (a.u.)
TACCTAGTCCAATTGTTTGTGGATTGAATTTGTGTTGGTTCGGAGTCACCTAGTGCAG | 10300 fluorescence intensity (a.u.)
GCGGGACTTGCAGATCCGAGCGGGCGGGGCGGGGCGGGTTCGGAGTCACCTAGTGCAG | 22000 fluorescence intensity (a.u.)
TGGGGTTAAGTTCATGGGCCGCCTAATTGGGTCGGCATTACGGAGTCACCTAGTGCAG | 8540 fluorescence intensity (a.u.)

Sequence | binding signal
CCAATTTTTATGGTCGGTTTGGTTCATTGGATGTACGTCACGGAGTCACCTAGTGCAG | 9930 fluorescence intensity (a.u.)
GTACTCTTTTGGTTCTTACTGTACTCTTTAAAAAAAAGTTCGGAGTCACCTAGTGCAG | 12100 fluorescence intensity (a.u.)
GTGCGGGCTTTCTTCCTAATTATATATATAAATGGTATAACGGAGTCACCTAGTGCAG | 8530 fluorescence intensity (a.u.)
GTCCTCCGCCGCCGCCGCCTCCTCCGTCGACCCCGCTCGCCGGAGTCACCTAGTGCAG | 9490 fluorescence intensity (a.u.)
CAAAATTTCGTGGAATTCAACCGCTTTTCGTCGGAACTGTCGGAGTCACCTAGTGCAG | 9460 fluorescence intensity (a.u.)
CCGCCCACCACATATCCTTTTCCTTTTCTTTTCTTTTATTCGGAGTCACCTAGTGCAG | 10300 fluorescence intensity (a.u.)
TTTCCGCTTTGTAATATATATTTATACCCCTTTCTTCTCTCGGAGTCACCTAGTGCAG | 9110 fluorescence intensity (a.u.)
ACATTTTTGTGCAGCCTCTCAAGCCTTATCCTCGTCTCGCCGGAGTCACCTAGTGCAG | 9120 fluorescence intensity (a.u.)
CCGAAGATATCAACCAAACAGACCCGAACTTCTTCCCATTCGGAGTCACCTAGTGCAG | 8360 fluorescence intensity (a.u.)
TGCGACCCCTTTTTCCCGACCTTTCTACAGGCCATCCTCCCGGAGTCACCTAGTGCAG | 9760 fluorescence intensity (a.u.)
ATGAACTTACTCCTTTCTTCTTCTTCTTCTTATTTTTTTTCGGAGTCACCTAGTGCAG | 14200 fluorescence intensity (a.u.)
CACCTCTCCCATGGCACCACCACCACCCTGACGCCGACGCCGGAGTCACCTAGTGCAG | 8180 fluorescence intensity (a.u.)
TGTTTGCACTTCATTCCATTCCATTCCACCTCCACTGCTTCGGAGTCACCTAGTGCAG | 8390 fluorescence intensity (a.u.)
ATACACTGTCTGCACCCACCTCCAGCCTTTGGCACCATTGCGGAGTCACCTAGTGCAG | 8660 fluorescence intensity (a.u.)
GACGTTTAGATGCTGCAATCGTGCTTGTCAACTTGTCATACGGAGTCACCTAGTGCAG | 9170 fluorescence intensity (a.u.)
TAGTCTTTATGGGATGTATTTCGTTGAGCTAGCTATATGTCGGAGTCACCTAGTGCAG | 8360 fluorescence intensity (a.u.)
GCTGTTATGTTACATGCCCTCCCTGAACTACTATTACTAGCGGAGTCACCTAGTGCAG | 8080 fluorescence intensity (a.u.)
CTTCCACTGTCTTCTTCCTTCTTGCTTCCTCTCTTCTCTTCGGAGTCACCTAGTGCAG | 8450 fluorescence intensity (a.u.)
TAGTATATATTTAGGTGTTTTCTCTGTCCTAATTCCTAACCGGAGTCACCTAGTGCAG | 10100 fluorescence intensity (a.u.)
GTAATTCATAGCTGCTATTCCACATCCGCGCTAACGTCCACGGAGTCACCTAGTGCAG | 9600 fluorescence intensity (a.u.)
AATAGTCACAGTTCTCGATTAGTTCTACAATTTTGTTATTCGGAGTCACCTAGTGCAG | 8920 fluorescence intensity (a.u.)

Quoted from the listing for reference:
Sequence | binding signal
ATTCTCATCATTGTTGGATTTCCTTAATTCTATTTTTCATCGGAGTCACCTAGTGCAG | 10800 fluorescence intensity (a.u.)
TTTATTTGCTTATCGTTTTCTAACATTCTGAACACAAACCCGGAGTCACCTAGTGCAG | 8230 fluorescence intensity (a.u.)

From article PMC7819943, “Rice protein-binding microarrays: a tool to detect cis-acting elements near promoter regions in rice”
